{
  "sequences": {"note": "Sequences of proteins named here, by UniProt entry; tags and fusion partners are left off.", "UniProt Q61188": "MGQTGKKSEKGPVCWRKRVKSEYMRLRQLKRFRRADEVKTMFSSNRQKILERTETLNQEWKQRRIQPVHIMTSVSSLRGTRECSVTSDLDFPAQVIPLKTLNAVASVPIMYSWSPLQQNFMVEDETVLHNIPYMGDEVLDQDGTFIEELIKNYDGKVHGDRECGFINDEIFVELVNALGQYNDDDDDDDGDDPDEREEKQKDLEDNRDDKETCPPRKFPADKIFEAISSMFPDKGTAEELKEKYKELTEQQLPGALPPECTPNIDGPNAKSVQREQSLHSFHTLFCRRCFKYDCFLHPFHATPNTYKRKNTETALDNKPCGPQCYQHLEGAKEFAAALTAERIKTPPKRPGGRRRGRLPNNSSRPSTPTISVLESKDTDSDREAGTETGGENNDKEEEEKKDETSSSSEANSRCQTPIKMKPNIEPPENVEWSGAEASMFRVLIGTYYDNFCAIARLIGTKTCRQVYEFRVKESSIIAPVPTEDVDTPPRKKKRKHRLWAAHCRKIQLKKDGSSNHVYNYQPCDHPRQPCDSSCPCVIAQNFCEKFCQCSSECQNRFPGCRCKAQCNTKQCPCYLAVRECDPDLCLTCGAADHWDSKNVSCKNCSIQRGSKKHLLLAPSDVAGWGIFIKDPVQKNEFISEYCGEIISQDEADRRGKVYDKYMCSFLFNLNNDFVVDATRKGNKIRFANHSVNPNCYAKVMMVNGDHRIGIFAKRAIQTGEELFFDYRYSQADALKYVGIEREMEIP", "UniProt P70351": "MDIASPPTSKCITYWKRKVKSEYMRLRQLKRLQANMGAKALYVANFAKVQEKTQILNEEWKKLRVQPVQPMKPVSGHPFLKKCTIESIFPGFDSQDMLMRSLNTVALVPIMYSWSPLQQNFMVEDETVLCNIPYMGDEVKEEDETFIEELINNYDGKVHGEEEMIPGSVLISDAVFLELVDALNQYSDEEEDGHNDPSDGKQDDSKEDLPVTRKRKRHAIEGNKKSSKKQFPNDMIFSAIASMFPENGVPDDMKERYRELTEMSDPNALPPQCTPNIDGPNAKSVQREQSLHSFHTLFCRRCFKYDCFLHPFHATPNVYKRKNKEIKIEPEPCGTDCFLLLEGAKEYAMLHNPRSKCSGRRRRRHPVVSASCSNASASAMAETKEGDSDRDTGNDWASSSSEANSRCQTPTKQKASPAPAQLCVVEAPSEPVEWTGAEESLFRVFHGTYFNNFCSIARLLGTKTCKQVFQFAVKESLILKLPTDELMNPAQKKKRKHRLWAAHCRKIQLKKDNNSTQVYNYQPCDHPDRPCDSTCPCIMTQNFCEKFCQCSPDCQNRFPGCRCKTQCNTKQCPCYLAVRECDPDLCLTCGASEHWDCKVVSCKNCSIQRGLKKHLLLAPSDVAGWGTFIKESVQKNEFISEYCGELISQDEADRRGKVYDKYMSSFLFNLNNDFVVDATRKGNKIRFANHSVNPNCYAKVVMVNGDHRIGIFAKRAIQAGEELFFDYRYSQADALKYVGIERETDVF"},
  "source": "paper PMC6547854",
  "binders": {"B1": {"name": "lamin B1 (protein, UniProt P14733 1-588)", "chain": "MATATPVQQQRAGSRASAPATPLSPTRLSRLQEKEELRELNDRLAVYIDKVRSLETENSALQLQVTEREEVRGRELTGLKALYETELADARRALDDTARERAKLQIELGKFKAEHDQLLLNYAKKESDLSGAQIKLREYEAALNSKDAALATALGDKKSLEGDLEDLKDQIAQLEASLSAAKKQLADETLLKVDLENRCQSLTEDLEFRKNMYEEEINETRRKHETRLVEVDSGRQIEYEYKLAQALHEMREQHDAQVRLYKEELEQTYHAKLENARLSSEMNTSTVNSAREELMESRMRIESLSSQLSNLQKESRACLERIQELEDMLAKERDNSRRMLSDREREMAEIRDQMQQQLSDYEQLLDVKLALDMEISAYRKLLEGEEERLKLSPSPSSRVTVSRASSSRSVRTTRGKRKRVDVEESEASSSVSISHSASATGNVCIEEIDVDGKFIRLKNTSEQDQPMGGWEMIRKIGDTSVSYKYTSRYVLKAGQTVTVWAANAGVTASPPTDLIWKNQNSWGTGEDVKVILKNSQGEEVAQRSTVFKTTIPEEEEEEEEEPIGVAVEEERFHQQGAPRASNKSCAIM"}},
  "key": {"[1]": {"biological_target": "EZH2 (mouse (endogenous in MLE12)) (UniProt Q61188)", "assay": "co-IP; extracts from control and lamin B1 KD cells; IP with control, EZH1 or EZH2 antibodies, blot with anti-lamin B1; coIP buffer 50 mM Tris pH 7.5, 100 mM NaCl, 15 mM EGTA, 0.1% Triton X-100; antibodies overnight at 4°C, Protein-A/G-Sepharose 3 h"}, "[2]": {"biological_target": "EZH1 (mouse (endogenous in MLE12)) (UniProt P70351)", "assay": "co-IP; extracts from control and lamin B1 KD cells; IP with control, EZH1 or EZH2 antibodies, blot with anti-lamin B1; coIP buffer 50 mM Tris pH 7.5, 100 mM NaCl, 15 mM EGTA, 0.1% Triton X-100; antibodies overnight at 4°C, Protein-A/G-Sepharose 3 h"}},
  "note": "No constants are given. Whether binding was seen depends on the method and setting. In cells and extracts the contact can be indirect. Some entries that bind do so weakly or less than the wild type.",
  "data": [
    {"binder": "B1", "values": [
      {"measurement": "binding", "setting": "[1]", "result": "binds"},
      {"measurement": "binding", "setting": "[2]", "result": "binds"}
    ]}
  ]
}
